Results are given in words; binding and its absence hold for the method and conditions named. Binding seen in cells or lysates may run through a third protein. Here binding means that the protein was enriched with, or labelled near, the bait; the list need not be complete. Where a sequence is shown, tags or fusion partners need not be part of it.
Biological target: T1, biotin-tagged XAB2 (XPA-binding protein 2) from aviXab2+/+;birA knock-in mice (mouse) (UniProt Q9DCD2)
T1 sequence (chain, biotin on the 15aa Avitag (added in vivo by the BirA ligase)): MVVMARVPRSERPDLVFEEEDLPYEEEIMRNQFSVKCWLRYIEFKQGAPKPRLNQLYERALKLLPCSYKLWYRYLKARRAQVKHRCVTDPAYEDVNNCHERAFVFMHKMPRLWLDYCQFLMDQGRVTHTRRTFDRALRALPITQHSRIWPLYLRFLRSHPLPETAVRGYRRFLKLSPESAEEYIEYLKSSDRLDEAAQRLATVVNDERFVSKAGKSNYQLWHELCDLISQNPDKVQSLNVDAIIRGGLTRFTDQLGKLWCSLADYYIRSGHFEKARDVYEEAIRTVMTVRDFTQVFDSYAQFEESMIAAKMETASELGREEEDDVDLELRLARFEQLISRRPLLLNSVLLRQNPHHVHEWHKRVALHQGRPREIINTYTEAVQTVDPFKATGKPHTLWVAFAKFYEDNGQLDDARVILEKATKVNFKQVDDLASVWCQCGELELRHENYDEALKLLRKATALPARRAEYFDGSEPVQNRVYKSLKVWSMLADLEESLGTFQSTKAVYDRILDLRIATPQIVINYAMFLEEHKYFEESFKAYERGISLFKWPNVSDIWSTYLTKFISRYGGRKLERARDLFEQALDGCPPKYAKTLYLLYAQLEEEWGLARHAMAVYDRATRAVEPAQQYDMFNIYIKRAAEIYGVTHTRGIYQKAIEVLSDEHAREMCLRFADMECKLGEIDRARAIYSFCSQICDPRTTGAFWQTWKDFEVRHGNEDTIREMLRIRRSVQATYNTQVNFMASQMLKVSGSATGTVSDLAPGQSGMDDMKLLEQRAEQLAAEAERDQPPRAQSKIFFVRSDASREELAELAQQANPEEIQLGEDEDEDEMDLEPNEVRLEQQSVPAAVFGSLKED
Assay: affinity purification with mass spectrometry; bXAB2 captured on M-280 streptavidin beads from high-salt nuclear extracts of P15 bXAB2 livers treated with benzonase and RNase A; BirA livers as control; three biological replicates, nLC-MS/MS

Protein sequences, listed by entry. Tags and fused reporters are not part of them.
UniProt Q9WVM3: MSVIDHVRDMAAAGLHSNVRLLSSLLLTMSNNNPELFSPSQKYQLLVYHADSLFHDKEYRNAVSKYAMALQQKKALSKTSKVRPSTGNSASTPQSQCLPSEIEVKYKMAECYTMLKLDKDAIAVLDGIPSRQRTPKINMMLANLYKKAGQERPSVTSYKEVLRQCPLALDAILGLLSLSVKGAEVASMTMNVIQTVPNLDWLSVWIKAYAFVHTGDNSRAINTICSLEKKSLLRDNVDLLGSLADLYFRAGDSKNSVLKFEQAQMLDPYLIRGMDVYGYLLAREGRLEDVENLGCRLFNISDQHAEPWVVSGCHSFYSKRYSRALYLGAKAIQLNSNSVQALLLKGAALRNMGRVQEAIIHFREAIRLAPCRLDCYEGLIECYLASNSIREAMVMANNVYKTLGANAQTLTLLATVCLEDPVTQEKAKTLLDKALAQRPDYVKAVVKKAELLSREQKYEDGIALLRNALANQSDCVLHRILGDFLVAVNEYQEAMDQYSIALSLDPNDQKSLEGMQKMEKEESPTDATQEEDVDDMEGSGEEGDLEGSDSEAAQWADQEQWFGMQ
UniProt Q91W96: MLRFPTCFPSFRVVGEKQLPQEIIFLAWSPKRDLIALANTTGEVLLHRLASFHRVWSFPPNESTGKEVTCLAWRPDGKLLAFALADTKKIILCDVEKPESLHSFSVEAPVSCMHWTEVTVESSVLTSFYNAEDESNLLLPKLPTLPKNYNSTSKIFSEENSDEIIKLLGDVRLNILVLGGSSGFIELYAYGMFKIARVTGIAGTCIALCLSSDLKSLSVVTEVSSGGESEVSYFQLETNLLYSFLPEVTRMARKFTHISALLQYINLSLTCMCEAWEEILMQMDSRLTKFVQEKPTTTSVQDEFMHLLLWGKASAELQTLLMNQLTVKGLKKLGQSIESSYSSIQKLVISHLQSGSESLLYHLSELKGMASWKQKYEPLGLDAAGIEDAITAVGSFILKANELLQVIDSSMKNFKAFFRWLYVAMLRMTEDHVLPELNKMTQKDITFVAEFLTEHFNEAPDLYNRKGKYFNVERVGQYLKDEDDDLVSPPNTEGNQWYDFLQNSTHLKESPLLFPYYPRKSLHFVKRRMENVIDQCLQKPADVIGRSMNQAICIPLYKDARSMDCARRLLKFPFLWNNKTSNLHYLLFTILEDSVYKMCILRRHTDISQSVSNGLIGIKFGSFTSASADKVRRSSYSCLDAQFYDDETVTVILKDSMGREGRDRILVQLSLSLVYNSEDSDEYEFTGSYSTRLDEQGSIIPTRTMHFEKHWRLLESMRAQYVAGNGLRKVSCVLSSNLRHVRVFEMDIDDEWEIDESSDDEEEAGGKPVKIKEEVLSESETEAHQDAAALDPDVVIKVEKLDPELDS
UniProt P53995: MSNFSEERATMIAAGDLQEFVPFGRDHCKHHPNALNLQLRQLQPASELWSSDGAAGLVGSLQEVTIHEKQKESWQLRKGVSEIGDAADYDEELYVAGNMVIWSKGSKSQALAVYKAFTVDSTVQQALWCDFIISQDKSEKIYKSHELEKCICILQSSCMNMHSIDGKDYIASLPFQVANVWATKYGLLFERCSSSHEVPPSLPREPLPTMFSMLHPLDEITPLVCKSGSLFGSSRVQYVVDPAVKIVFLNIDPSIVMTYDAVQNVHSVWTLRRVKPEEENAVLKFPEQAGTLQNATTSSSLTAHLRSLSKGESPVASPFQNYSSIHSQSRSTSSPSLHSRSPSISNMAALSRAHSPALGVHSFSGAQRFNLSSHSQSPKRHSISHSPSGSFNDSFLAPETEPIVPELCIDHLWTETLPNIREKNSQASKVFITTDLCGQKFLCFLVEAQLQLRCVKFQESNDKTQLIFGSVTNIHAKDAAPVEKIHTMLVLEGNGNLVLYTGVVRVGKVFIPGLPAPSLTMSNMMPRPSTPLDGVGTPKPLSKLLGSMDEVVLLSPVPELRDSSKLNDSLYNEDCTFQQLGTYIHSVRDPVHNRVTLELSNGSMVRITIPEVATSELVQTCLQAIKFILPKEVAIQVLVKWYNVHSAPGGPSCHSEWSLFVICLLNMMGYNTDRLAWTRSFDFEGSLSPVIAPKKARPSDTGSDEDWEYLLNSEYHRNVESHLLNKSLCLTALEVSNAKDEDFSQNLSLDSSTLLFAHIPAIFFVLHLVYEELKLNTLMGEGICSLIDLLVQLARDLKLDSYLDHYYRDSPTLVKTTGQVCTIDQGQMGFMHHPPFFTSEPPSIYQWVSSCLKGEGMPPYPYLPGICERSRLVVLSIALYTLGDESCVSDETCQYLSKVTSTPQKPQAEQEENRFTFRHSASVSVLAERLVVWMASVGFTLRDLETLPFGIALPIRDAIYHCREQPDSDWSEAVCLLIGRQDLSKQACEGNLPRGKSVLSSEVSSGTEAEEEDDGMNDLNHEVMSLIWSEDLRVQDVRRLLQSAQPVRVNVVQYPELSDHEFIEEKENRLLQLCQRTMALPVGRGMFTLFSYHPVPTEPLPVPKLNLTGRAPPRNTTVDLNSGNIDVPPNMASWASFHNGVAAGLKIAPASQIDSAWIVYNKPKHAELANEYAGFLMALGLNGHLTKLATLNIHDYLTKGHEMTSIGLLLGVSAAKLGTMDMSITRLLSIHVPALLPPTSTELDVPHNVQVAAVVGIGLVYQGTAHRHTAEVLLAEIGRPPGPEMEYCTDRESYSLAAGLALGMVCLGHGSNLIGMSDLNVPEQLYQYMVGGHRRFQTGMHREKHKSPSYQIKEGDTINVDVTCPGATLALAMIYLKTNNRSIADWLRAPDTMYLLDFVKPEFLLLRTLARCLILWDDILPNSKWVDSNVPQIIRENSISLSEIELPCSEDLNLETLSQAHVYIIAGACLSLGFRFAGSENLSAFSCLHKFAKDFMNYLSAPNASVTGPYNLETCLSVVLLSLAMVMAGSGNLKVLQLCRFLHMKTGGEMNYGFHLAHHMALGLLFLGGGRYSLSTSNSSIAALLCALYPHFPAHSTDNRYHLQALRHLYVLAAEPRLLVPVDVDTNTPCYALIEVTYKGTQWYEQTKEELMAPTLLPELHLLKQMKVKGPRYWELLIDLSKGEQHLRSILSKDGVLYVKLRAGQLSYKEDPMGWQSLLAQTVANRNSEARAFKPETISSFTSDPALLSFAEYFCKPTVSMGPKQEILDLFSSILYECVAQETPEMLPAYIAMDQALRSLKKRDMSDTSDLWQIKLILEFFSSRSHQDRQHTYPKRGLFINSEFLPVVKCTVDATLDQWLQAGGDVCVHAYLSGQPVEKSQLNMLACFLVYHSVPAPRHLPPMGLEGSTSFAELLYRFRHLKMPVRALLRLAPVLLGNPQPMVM
UniProt Q99KP6: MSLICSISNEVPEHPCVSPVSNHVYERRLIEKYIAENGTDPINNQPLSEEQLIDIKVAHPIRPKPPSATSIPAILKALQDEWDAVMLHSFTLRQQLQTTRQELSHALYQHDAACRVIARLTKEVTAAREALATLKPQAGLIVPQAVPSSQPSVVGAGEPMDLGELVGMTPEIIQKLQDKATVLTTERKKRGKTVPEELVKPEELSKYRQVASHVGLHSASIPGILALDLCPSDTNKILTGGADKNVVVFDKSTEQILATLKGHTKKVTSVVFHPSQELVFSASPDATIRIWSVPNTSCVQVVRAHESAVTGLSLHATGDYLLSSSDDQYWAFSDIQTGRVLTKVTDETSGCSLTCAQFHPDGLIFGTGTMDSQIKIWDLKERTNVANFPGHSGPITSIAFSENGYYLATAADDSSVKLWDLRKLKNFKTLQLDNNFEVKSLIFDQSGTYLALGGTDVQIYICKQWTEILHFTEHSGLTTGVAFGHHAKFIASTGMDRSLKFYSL
UniProt Q9R1K5: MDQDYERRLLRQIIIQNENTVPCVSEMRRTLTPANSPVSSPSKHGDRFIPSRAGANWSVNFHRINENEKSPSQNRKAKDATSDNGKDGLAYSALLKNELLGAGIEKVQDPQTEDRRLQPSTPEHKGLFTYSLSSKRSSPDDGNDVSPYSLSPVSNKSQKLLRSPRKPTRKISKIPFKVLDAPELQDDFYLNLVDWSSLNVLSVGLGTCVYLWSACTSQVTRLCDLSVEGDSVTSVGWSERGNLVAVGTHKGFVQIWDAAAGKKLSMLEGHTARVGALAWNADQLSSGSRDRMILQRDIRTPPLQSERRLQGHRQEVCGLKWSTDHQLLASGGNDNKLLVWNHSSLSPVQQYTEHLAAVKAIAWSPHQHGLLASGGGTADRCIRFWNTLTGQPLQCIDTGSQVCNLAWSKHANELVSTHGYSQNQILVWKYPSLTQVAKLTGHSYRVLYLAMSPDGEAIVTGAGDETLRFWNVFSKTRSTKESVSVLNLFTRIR
UniProt Q9CW03: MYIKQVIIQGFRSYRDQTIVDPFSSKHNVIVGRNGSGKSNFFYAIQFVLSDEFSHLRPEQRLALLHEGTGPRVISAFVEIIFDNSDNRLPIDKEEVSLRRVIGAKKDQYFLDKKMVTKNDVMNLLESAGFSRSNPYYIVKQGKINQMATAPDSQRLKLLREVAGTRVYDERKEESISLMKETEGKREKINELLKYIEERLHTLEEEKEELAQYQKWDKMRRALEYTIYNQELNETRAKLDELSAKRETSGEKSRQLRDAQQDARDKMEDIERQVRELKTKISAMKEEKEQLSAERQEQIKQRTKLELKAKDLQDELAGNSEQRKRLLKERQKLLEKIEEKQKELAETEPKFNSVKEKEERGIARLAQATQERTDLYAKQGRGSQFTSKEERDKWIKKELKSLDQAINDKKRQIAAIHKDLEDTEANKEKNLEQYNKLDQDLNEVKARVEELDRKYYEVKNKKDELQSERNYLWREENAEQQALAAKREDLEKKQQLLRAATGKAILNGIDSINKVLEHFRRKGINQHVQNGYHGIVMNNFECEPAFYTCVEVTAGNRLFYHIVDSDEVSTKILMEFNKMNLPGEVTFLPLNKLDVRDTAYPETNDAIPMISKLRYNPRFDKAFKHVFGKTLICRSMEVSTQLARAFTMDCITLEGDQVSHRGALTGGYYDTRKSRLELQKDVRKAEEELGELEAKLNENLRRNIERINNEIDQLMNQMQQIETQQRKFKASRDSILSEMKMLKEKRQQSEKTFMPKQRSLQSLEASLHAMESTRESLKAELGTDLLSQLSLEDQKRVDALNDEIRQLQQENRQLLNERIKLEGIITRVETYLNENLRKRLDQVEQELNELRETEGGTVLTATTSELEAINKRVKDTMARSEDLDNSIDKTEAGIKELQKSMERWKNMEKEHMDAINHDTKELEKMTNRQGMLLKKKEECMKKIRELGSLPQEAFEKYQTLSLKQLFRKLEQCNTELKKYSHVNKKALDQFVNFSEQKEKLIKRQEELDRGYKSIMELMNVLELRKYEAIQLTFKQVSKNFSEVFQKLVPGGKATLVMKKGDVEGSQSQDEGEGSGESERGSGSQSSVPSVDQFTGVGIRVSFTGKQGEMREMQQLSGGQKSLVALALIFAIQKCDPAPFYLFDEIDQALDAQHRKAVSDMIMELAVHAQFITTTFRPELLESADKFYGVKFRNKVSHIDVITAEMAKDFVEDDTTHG
UniProt Q8BZQ7: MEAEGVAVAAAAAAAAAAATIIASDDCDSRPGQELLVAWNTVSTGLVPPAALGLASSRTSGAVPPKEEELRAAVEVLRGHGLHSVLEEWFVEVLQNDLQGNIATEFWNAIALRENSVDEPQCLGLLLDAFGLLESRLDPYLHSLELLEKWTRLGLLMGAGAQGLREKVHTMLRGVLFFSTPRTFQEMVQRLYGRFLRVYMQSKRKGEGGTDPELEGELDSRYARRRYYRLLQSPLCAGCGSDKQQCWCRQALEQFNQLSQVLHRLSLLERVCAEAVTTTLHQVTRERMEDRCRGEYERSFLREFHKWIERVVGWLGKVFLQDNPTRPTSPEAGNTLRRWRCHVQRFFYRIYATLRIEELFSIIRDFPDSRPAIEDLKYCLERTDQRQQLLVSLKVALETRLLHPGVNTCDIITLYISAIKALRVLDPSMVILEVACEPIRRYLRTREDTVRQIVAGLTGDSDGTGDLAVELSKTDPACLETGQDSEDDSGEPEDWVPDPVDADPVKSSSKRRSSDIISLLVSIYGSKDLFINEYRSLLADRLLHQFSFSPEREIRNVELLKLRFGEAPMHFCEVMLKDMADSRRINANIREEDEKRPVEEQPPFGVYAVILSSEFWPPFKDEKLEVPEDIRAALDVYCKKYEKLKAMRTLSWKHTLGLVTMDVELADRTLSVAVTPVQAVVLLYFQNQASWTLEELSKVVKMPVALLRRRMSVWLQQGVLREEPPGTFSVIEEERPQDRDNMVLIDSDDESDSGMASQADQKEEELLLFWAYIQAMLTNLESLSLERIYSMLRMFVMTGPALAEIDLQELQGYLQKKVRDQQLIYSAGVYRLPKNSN

In the case of CDC27 (from UniProt A2A6Q5 1-825), the binding is reported as “binds”.

With ANAPC 5 (from UniProt Q8BTZ4 1-740) the binding was “binds”.

ANAPC 7 (from UniProt Q9WVM3 1-565) was tested, and the binding was “binds”.

In the case of ANAPC 4 (from UniProt Q91W96 1-807), the binding is reported as “binds”.

“NUP205 (mouse (endogenous in P15 liver))” was tested, and the binding was “binds”.

For MDN1 (mouse (endogenous in P15 liver)), the binding was “binds”.

With ANAPC1 (from UniProt P53995 1-1944) the binding was “binds”.

In the case of CDC23 (from UniProt Q8BGZ4 1-597), the binding is reported as “binds”.

With “pre-mRNA-processing factor 19 (PRP19) (from UniProt Q99KP6 1-504)” the binding was “binds”.

In the case of FZR1 (from UniProt Q9R1K5 1-493), the binding is reported as “binds”.

With BMS1 (from UniProt Q6PGF5 1-1284) the binding was “binds”.

For SMC3 (from UniProt Q9CW03 1-1217), the binding was “binds”.

ANAPC 2 (from UniProt Q8BZQ7 1-837) was tested, and the binding was “binds”.

For NUP210 (from UniProt Q9QY81 27-1886), the binding was “binds”.

For WDR36 (mouse (endogenous in P15 liver)), the binding was “binds”.

B1: Aquarius (AQR) (protein, UniProt Q8CFQ3 1-1481)
chain: MAAPAQPKKIVAPTVSQINAEFVTQLACKYWAPHIKKKSPFDIKVIEEIYEKEIVKSRFAIRKIMLLEFSQYLENYLWMNYSPEVSSKAYLMSICCMVNEKFRENVPAWETFKKKPDHFPFFFKCILKAALAETDGEFSLHEQTLLLLFLDHCFNSLEVDLIRSQVQQLISLPMWMGLQPARLELELKKTPKLRKFWNLIKKNDEKMDPEAREQAYQERRFLSRLIQKFISVLKSIPLSEPVTMDKVHYCERFIELMIDLEALLPTRRWFNTILDDSHLLVHCYLSSLVHREEDGHLFSQLLDMLKFYTGFEINDQTGNALTENEMTTIHYDRITSLQRAAFAHFPELYDFALSNVAEVDARDSLVKFFGPLSSNTLHQVASYLCLLPTLPKNEDTTFDKEFLLELLVSRHERRISQIQQLNQMPLYPTEKIIWDENIVPTEYYSGEGCLALPKLNLQFLTLHDYLLRNFNLFRLESTYEIRQDIEDSVSRMKPWQSEYGGVVFGGWARMAQPIVAFTVVEVAKPNIGENWPTRVRADVTINLNVRDHIKDEWEGLRKHDVCFLITVRPTKPYGTKFDRRRPFIEQVGLVYVRGCEIQGMLDDKGRVIEDGPEPRPNLRGESRTFRVFLDPNQYQQDMTNTIQNGAEDVYDTFNVIMRRKPKENNFKAVLETIRNLMNTDCVVPDWLHDIILGYGDPSSAHYSKMPNQIATLDFNDTFLSIEHLKASFPGHNVKVTVSDPALQIPPFRITFPVRSGKGKKRKDADGEEDDTEEAKTLIVEPHVIPNRGPYPYNQPKRNTIQFTHTQIEAIRAGMQPGLTMVVGPPGTGKTDVAVQIISNIYHNFPEQRTLIVTHSNQALNQLFEKIMALDIDERHLLRLGHGEEELETEKDFSRYGRVNYVLARRIELLEEVKRLQKSLGVPGDASYTCETAGYFFLYQVMSRWEEYMSRVKNSGTACPDAAPDAAQVATFFPFHEYFANAPQPIFKGRSYEEDMEIAEGCFRHIKKIFTQLEEFRASELLRSGLDRSKYLLVKEAKIIAMTCTHAALKRHDLVKLGFKYDNILMEEAAQILEIETFIPLLLQNPQDGFSRLKRWIMIGDHHQLPPVIKNMAFQKYSNMEQSLFTRFVRVGVPTVDLDAQGRARASLCNLYNWRYKNLGNLPHVQLLPEFSTANAGLLYDFQLINVEDFQGVGESEPNPYFYQNLGEAEYVVALFMYMCLLGYPADKISILTTYNGQKHLIRDIINRRCGNNPLIGRPNKVTTVDRFQGQQNDYILLSLVRTRAVGHLRDVRRLVVAMSRARLGLYIFARVSLFQNCFELTPAFSQLTARPLHLHIIPTEPFPTSRKNGERPPHEVQVIKNMPQMANFVYNMYMHLIQTTHHYHQTFLQLPPAMVEEGEEGQSQETEMEAEEETVSAQGNLTPSPADASLSQETPAAQPDCSSQTEDTSAPCDIATAAEPVSAAAEAATPQDAESVPTETE
For B1, the binding was “binds”.

B2: NUP50 (protein, UniProt Q9JIH2 1-466)
chain: MAKRVAEKELTDRNWDEEDEVEEMGTFSVASEEVMKNRAVKKAKRRNVGFESDSGGAFKGFKGLVVPSGGGGFSGFGGSGGKPLEGLTNGNSTDNATPFSNVKTAAEPKAAFGSFAVNGPTTLVDKKISSPKCNNSNQPPSSGPASSTACPGNAYHKQLAGLNCSVRDWIVKHVNTNPLCDLTPIFKDYERYLATIEKQLENGGGSSSESQTDRATAGMEPPSLFGSTKLQQESPFSFHGNKAEDTSEKVEFTAEKKSDAAQGATSASFSFGKKIESSALGSLSSGSLTGFSFSAGSSSLFGKDAAQSKAASSLFSAKASESPAGGGSSECRDGEEEENDEPPKVVVTEVKEEDAFYSKKCKLFYKKDNEFKEKGVGTLHLKPTATQKTQLLVRADTNLGNILLNVLIAPNMPCTRTGKNNVLIVCVPNPPLDEKQPTLPATMLIRVKTSEDADELHKILLEKKDA
B2 was tested, and the binding was “binds”.

B3: NUPl2 (protein, UniProt Q8CIC2 1-420)
chain: MTICQFFLQGRCRFGDRCWNEHPGARGAGGARQPPPQQQPPSGNNRRGWNASSQRYSNVIQPSSFPKSTPWGGSRDQDKPPFGSFDSGASTSRGFGSSQNPFASPLSDEQKDEKKLLEGIVKDVEVWESSGQWMFSVYSPVRKKPNISGFTDISPEELRLEYHNFLTSNNLQSYLNSVQQLVSQWRNRINELKNLTMSTKGALLSDVKDGVSQAVPAFGFGSKQAGSFGSPGFPVNNSSSSTVQNFSFKTSPGLATPPSGSTSVFGSHPAFGAGPSAGSSISSSTPAFGLGKPEATSAASFSFKSPEASSFASPGFSGFPASMAASPSGSTTAPPLRSGSSVVGFGSPSPHSQAVFAKPSTDVFGGSGISTSVLASGAADNALFTPRDQLMKEELEQFQSQRFTLGKIPLKPPPVELLTV
With B3 the binding was “binds”.

B4: BCAS2 (protein, UniProt Q9D287 1-225)
chain: MAGTGLVAGEVVVDALPYFDQGYEAPGVREAAAALVEEETRRYRPTKNYLSYLTAPDYSAFETDIMRNEFERLAARQPIELLSMKRYELPAPSSGQKNDITAWQECVNNSMAQLEHQAVRIENLELMSQHGCNAWKVYNENLVHMIEHAQKELQKLRKHIQDLNWQRKNMQLTAGSKLREMESNWVSLVSKNYEIERTIVQLENEIYQIKQQHGEANKENIRQDF
With B4 the binding was “binds”.

B5: RAD21 (protein, UniProt Q61550 1-635)
chain: MFYAHFVLSKRGPLAKIWLAAHWDKKLTKAHVFECNLESSVESIISPKVKMALRTSGHLLLGVVRIYHRKAKYLLADCNEAFIKIKMAFRPGVVDLPEENREAAYNAITLPEEFHDFDQPLPDLDDIDVAQQFSLNQSRVEEITMREEVGNISILQENDFGDFGMDDREIMREGSAFEDDDMLVSTSASNLLLEPEQSTSNLNEKMNHLEYEDQYKDDNFGEGNDGGILDDKLISNNDGGIFDDPPALSEAGVMLPEQPAHDDMDEDDNGSLGGPDSPDSVDPVEPMPTMTDQTTLVPNEEEAFALEPIDITVKETKAKRKRKLIVDSVKELDSKTIRAQLSDYSDIVTTLDLAPPTKKLMMWKETGGVEKLFFLPAQPLWNNRLLKLFTRCLTPLVPEDLRKRRKGGEADNLDEFLKEFENPEVPREEQQPQQQQPQPQRDVIDEPIIEEPSRLQDSVMEASRTTIEESAMPPPPPQGVKRKAGQIDPEPSIPPQQVEQMEIPPVELPPEEPPNICQLIPELELLPEKEKEKEKEKEEEEEEEDEDASGGDQDQEERRWNKRTQQMLHGLQRALAKTGAESISLLELCRNTNRKQAAAKFYSFLVLKKQQAIELTQEEPYSDIIATPGPRFHII
In the case of B5, the binding is reported as “binds”.

From paper PMC8155215, “The splicing factor XAB2 interacts with ERCC1-XPF and XPG for R-loop processing”
